The supplement of paper PMC10727501
The list shows a part of the results. Single values are uncertain here, since repeats match poorly.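 Researchers measured free-swimming zebrafish larvae's O-bend response probability to dark flashes (naive: first five; training: remaining flashes of four 60-flash blocks; test: later 60-flash block) and OMR turning toward alternating leftward/rightward LED motion. Six treated larvae were compared to sixty 0.1% DMSO controls, with |SSMD|≥2 marking a hit.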

Tests used:
Settings in all cases: 10 µM; pre-incubation: 30-90 min
[1] = system: Danio rerio larvae (5 dpf, TLF); assay: OMR-Perf (SSMD vs DMSO vehicle); higher = higher than vehicle (e.g. higher dark-flash O-bend response probability, or better optomotor performance)
[2] = system: Danio rerio larvae (5 dpf, TLF); assay: Prob-Test (SSMD vs DMSO vehicle); higher = higher than vehicle (e.g. higher dark-flash O-bend response probability, or better optomotor performance)
[3] = system: Danio rerio larvae (5 dpf, TLF); assay: Prob-Naive (SSMD vs DMSO vehicle); higher = higher than vehicle (e.g. higher dark-flash O-bend response probability, or better optomotor performance)
[4] = system: Danio rerio larvae (5 dpf, TLF); assay: Prob-Train (SSMD vs DMSO vehicle); higher = higher than vehicle (e.g. higher dark-flash O-bend response probability, or better optomotor performance)

Structure (SMILES) | OMR-Perf [1] | Prob-Test [2] | Prob-Naive [3] | Prob-Train [4]
C[C@@]1(c2cc(-c3cncnc3)c(F)cc2F)CCSC(N)=N1 | 0.211 | 0.339 | -0.245 | 0.0264
C[C@@H]1O[C@@H](O[C@@H]2[C@H](Oc3cc(O)c(C(=O)CCc4ccc(O)cc4)c(O)c3)O[C@H](CO)[C@@H](O)[C@@H]2O)[C@H](O)[C@H](O)[C@H]1O [Naringin Dihydrochalcone] | 0.0673 | -0.044 | -0.234 | -0.127
O=C(Nc1ncc(SCCN2CCCC2)s1)[C@]1(c2ccc(S(=O)(=O)C3CC3)cc2)C[C@@H]1C1CCCCC1 | -0.592 | -0.68 | 0.302 | -0.88
C=CCNC1=C2C[C@@H](C)C[C@H](OC)[C@H](O)[C@@H](C)/C=C(\C)[C@H](OC(N)=O)[C@@H](OC)/C=C\C=C(\C)C(=O)NC(=CC1=O)C2=O [17-AAG (Tanespimycin)] | 0.027 | -0.101 | 0.00516 | -0.312
COc1cc([C@H]2c3cc4c(cc3[C@@H](O[C@@H]3O[C@@H]5CO[C@@H](C)O[C@H]5[C@H](O)[C@@H]3O)[C@H]3COC(=O)[C@H]23)OCO4)cc(OC)c1O [Etoposide] | 0.0931 | 0.0299 | -0.205 | 0.649
C[C@@H]1O[C@@H](O[C@@H]2[C@H](Oc3cc(O)c4c(c3)O[C@H](c3ccc(O)cc3)CC4=O)O[C@H](CO)[C@@H](O)[C@@H]2O)[C@@H](O)[C@H](O)[C@H]1O [Naringin] | -0.629 | 0.0565 | 0.208 | -0.392
Cc1c(OCC(F)(F)F)ccnc1C[S@@](=O)c1nc2ccccc2[nH]1 [Dexlansoprazole] | 0.328 | -0.333 | 0.00602 | -1.51
COc1ccc(COc2ccc(Cc3cnc(N)nc3N)cc2OC)cc1 | -0.655 | -0.283 | -0.0443 | -0.131
COc1ccc2[n-]c(S(=O)Cc3ncc(C)c(OC)c3C)nc2c1.COc1ccc2[n-]c(S(=O)Cc3ncc(C)c(OC)c3C)nc2c1.[Mg+2] (stereo not given) [Esomeprazole magnesium (Nexium)] | -0.534 | -0.591 | -0.142 | -0.819
Nc1ccn([C@@H]2O[C@H](CO)[C@@H](O)[C@H]2O)c(=O)n1 [Cytarabine] | 0.296 | 0.114 | -0.205 | 0.263
CN(c1ncccc1CNc1nc(Nc2ccc3c(c2)CC(=O)N3)ncc1C(F)(F)F)S(C)(=O)=O.O=S(=O)(O)c1ccccc1 | 0.0622 | -0.113 | 0.515 | -0.165
NC(=O)c1ncn([C@@H]2O[C@@H](CO)[C@@H](O)[C@H]2O)c1N [Acadesine] | -0.464 | -0.165 | -0.0595 | -0.0741
Cc1cc(C)c2c(c1)[C@@H](N(Cc1cc(C(F)(F)F)cc(C(F)(F)F)c1)c1nnn(C)n1)CCCN2C[C@H]1CC[C@H](C(=O)O)CC1 | -0.262 | -1.69 | 0.302 | -0.952
CNC(=O)c1cc(COc2nnc(Nc3ccc(Cl)cc3)c3ccoc23)ccn1 [Telatinib] | -0.613 | -0.136 | -0.397 | -0.24
CC(=O)c1c(C)c2cnc(Nc3ccc(N4CCNCC4)cn3)nc2n(C2CCCC2)c1=O.Cl | 0.431 | -0.697 | 0.35 | 0.00477

Part of the list above in order of molecular weight, falling.
Structure (SMILES) | OMR-Perf [1] | Prob-Test [2] | Prob-Naive [3] | Prob-Train [4]
C[C@@H]1O[C@@H](O[C@@H]2[C@H](Oc3cc(O)c(C(=O)CCc4ccc(O)cc4)c(O)c3)O[C@H](CO)[C@@H](O)[C@@H]2O)[C@H](O)[C@H](O)[C@H]1O [Naringin Dihydrochalcone] | 0.0673 | -0.044 | -0.234 | -0.127
O=C(Nc1ncc(SCCN2CCCC2)s1)[C@]1(c2ccc(S(=O)(=O)C3CC3)cc2)C[C@@H]1C1CCCCC1 | -0.592 | -0.68 | 0.302 | -0.88
COc1ccc(COc2ccc(Cc3cnc(N)nc3N)cc2OC)cc1 | -0.655 | -0.283 | -0.0443 | -0.131
